# From paper PMC7819943, “Rice protein-binding microarrays: a tool to detect cis-acting elements near promoter regions in rice”
# This is one part of the list.
# Biological target: T1, OsSMF1 (Oryza sativa, UniProt Q6ZLB0 1-436)
# T1 sequence: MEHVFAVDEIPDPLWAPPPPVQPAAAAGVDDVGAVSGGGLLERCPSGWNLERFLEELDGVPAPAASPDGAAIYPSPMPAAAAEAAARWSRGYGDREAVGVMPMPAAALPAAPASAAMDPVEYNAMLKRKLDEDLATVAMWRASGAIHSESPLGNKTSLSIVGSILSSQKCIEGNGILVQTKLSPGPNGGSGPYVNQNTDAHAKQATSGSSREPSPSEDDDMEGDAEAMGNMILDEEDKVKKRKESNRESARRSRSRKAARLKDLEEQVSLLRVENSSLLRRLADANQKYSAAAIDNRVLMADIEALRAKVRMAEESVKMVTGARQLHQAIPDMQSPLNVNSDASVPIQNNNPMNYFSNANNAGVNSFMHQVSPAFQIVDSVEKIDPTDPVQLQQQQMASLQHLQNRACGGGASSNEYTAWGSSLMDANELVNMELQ
# Assay: protein-binding microarray (RPBM); PBS, 2% BSA, 51.3 ng/ul salmon testes DNA, 50 uM zinc acetate, 200 nM TF, 25 C, 1 h; high values mean tight binding
# Conditions: protein: recombinant; tags: N-terminal polyhistidine and DsRed monomer fusion (pET32a); chain copies: 2; label: CyDye5-dUTP incorporated in the synthesized complementary strand; 3' TTTTT single-stranded linker to array surface; dsDNA, one strand shown
# Procedure, shortened: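 Transcription factors, each fused N-terminally to a polyhistidine tag and DsRed, were expressed in E. coli BL21-CodonPlus and purified on Ni–NTA. A custom Agilent array was made double-stranded by primer extension with Cy5-dUTP and blocked with 2% BSA. It was incubated with 200 nM protein in PBS, 2% BSA, salmon testes DNA and 50 µM zinc acetate at 25 °C for 1 h, then washed. The binding signal is per-feature fluorescence intensity (arbitrary units) read on an Axon 4000B scanner.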
row,Sequence,binding signal
1,GCGCGGCAGAGGGTGACGGCGGCGGCAACCAGACGGTCGGCGGAGTCACCTAGTGCAG,4140 fluorescence intensity (a.u.)
2,TTCTGTTCTGACGAGACGAAGAATGTGTCTCCTTATGTGGCGGAGTCACCTAGTGCAG,3260 fluorescence intensity (a.u.)
3,GTTTGAATAGGTCTTTCGTCCCACGTGGCATTGACGTGGCCGGAGTCACCTAGTGCAG,45700 fluorescence intensity (a.u.)
4,TGATGGGCTGCTTGAACGGGGAGTGGCTGGCGTGGAACGACGGAGTCACCTAGTGCAG,5160 fluorescence intensity (a.u.)
5,TTCTATCGAATTGCTTTCAGTTGCTGATGCTGCCTTGGTGCGGAGTCACCTAGTGCAG,3160 fluorescence intensity (a.u.)
6,ACGGGCTCACCGTCACCGCGCCCAGCGGCGCCTGCTGCTCCGGAGTCACCTAGTGCAG,4580 fluorescence intensity (a.u.)
7,CGGAGAAGTTGTACTTCGTGCTGCCCAAGGCGATGTTCATCGGAGTCACCTAGTGCAG,3720 fluorescence intensity (a.u.)
8,ACCAAGATTGACCTCAAGTCACCTGCACACAATCAGACAACGGAGTCACCTAGTGCAG,21200 fluorescence intensity (a.u.)
9,TCTTATCCACTATCCTTTCCTACGTGGTGTTCGTTTAGTGCGGAGTCACCTAGTGCAG,8560 fluorescence intensity (a.u.)
10,ATGTTGTCGAGCTGGGGTCGCCGTCATCAACTGTATGGAGCGGAGTCACCTAGTGCAG,4000 fluorescence intensity (a.u.)
11,AGCCATACCCCGCACACCACGCCACGCAGATCTTTTCTCCCGGAGTCACCTAGTGCAG,4860 fluorescence intensity (a.u.)
12,ACAGTGATGCCCCGCCGCCGCCACCTCCACCACCCTCTCACGGAGTCACCTAGTGCAG,3160 fluorescence intensity (a.u.)
13,TTTTCTAGAAACGTTACCACGTGTCGGCTCAGAAAGGCCGCGGAGTCACCTAGTGCAG,9620 fluorescence intensity (a.u.)
14,AAATCTTCTTTACTACAATTTGCATTGGATGACTATTTCTCGGAGTCACCTAGTGCAG,3200 fluorescence intensity (a.u.)
15,CTTAGAATAGTATGGAGGACACAATAGCTGGACAACAAGGCGGAGTCACCTAGTGCAG,24000 fluorescence intensity (a.u.)
16,TCCCCTTCAGCTGATGGTGCGTGGCAGCAGGCAAGCCCGCCGGAGTCACCTAGTGCAG,5070 fluorescence intensity (a.u.)
17,GGAGACAAGAGTCACCTCGTGTGAGGCCCCGATCCGGTGACGGAGTCACCTAGTGCAG,32400 fluorescence intensity (a.u.)
18,GGCAACAGGTCAAACCTCAAGCGTCAGCGTCAATGGTTGTCGGAGTCACCTAGTGCAG,5120 fluorescence intensity (a.u.)
19,ATGGGTTGTTCAACACGTGTATTTCTTTTCATGCAGAATCCGGAGTCACCTAGTGCAG,8500 fluorescence intensity (a.u.)
20,ATCTTATGGAATCCTATGAAATTCATATGGAATGCCTAATCGGAGTCACCTAGTGCAG,65000 fluorescence intensity (a.u.)
21,AGAATCTTGGCACGTGGAGCGTGCCACCGTCAATACTCATCGGAGTCACCTAGTGCAG,4820 fluorescence intensity (a.u.)

row,Sequence,binding signal
1,TCGCAGCCGGCGATCGACAGCAGCGTCATCGTGGTGGTGGCGGAGTCACCTAGTGCAG,6520 fluorescence intensity (a.u.)
2,GATAATCACTTTCCCTTTACATATCTGCATCAACTTTCTCCGGAGTCACCTAGTGCAG,20400 fluorescence intensity (a.u.)
3,GTAGTTTCTTTTACAGCATTGGCTTTAAGTCACCAAGAACCGGAGTCACCTAGTGCAG,5060 fluorescence intensity (a.u.)
4,TGCGATTGATTCGGTATTAGAGCCTGCATACGTGTCATCTCGGAGTCACCTAGTGCAG,22100 fluorescence intensity (a.u.)
5,GCAAACGAAGCAATCGGTTAGCGTCCAGGATCACCTCCAGCGGAGTCACCTAGTGCAG,3670 fluorescence intensity (a.u.)
6,GTGCAGGATTCTTTCGTTGCCATGTTGTCACTCACCCGTGCGGAGTCACCTAGTGCAG,5070 fluorescence intensity (a.u.)
7,GTTAATCTCAATAAAATACTTAGCTCCATAAATAATTTTGCGGAGTCACCTAGTGCAG,36700 fluorescence intensity (a.u.)
8,CTACTTGCTGATCTACTTTTACGCTGGCAACTAGCGAGTACGGAGTCACCTAGTGCAG,3640 fluorescence intensity (a.u.)
9,ATATCCATTTTCTCGTCAATGCCACGGCATGTTTGAGTTACGGAGTCACCTAGTGCAG,4280 fluorescence intensity (a.u.)
10,TTTGTGTGTGTGTTGTTGGTCGGGTGGGGTCGCCGGCGCCCGGAGTCACCTAGTGCAG,4270 fluorescence intensity (a.u.)
11,AAGGGGATATGGTGGTCATGAATAGATAGATACGTTAGGTCGGAGTCACCTAGTGCAG,3420 fluorescence intensity (a.u.)
12,CGGAAGTACGGGCTGCCGCGGGCTGCGACGTGCACCCGTTCGGAGTCACCTAGTGCAG,3450 fluorescence intensity (a.u.)
13,CCGGACGCCAGCTCACGAATATCCACCCGATTTAATCCCGCGGAGTCACCTAGTGCAG,5900 fluorescence intensity (a.u.)
14,CTGGAGGGATTCACCTGGAGATGACAGGGCAGAACGTTACCGGAGTCACCTAGTGCAG,5600 fluorescence intensity (a.u.)
15,ACTGCTCTGATACCTTTGTCAGATCCCGTGATTAGAAATGCGGAGTCACCTAGTGCAG,3440 fluorescence intensity (a.u.)
16,GCACGAGCCCAACACCAGTCGTGTCATGTCGTGCTTGGGTCGGAGTCACCTAGTGCAG,4460 fluorescence intensity (a.u.)
17,TGCGAAGAGTCAATGATGTCATATATTTCAAAACGGAGAGCGGAGTCACCTAGTGCAG,20800 fluorescence intensity (a.u.)
18,CCGCCTACGCCACTCGCTTGCGTGGCTTCGCTCCCACCGACGGAGTCACCTAGTGCAG,8660 fluorescence intensity (a.u.)
19,CTCGGGTGGGCCACACATGGGCTGTCAGCCCATCACCAAGCGGAGTCACCTAGTGCAG,3240 fluorescence intensity (a.u.)
20,GACTAGTGGGCCCACGCAGCATGATGGTCCACACGTCAGTCGGAGTCACCTAGTGCAG,5840 fluorescence intensity (a.u.)
21,AAGAACATCATCATGACGTCGGTGAACGAGGCGTGGGCGGCGGAGTCACCTAGTGCAG,4920 fluorescence intensity (a.u.)

# Some values from above.
# For binding signal, GTGCAGGATTCTTTCGTTGCCATGTTGTCACTCACCCGTGCGGAGTCACCTAGTGCAG is entered as 5070 fluorescence intensity (a.u.)
# For binding signal, GCACGAGCCCAACACCAGTCGTGTCATGTCGTGCTTGGGTCGGAGTCACCTAGTGCAG is entered as 4460 fluorescence intensity (a.u.)
